The target of assay [1] is AXH domain of ataxin-1, recombinant protein for size exclusion chromatography (UniProt P54253). In words: SEC; analytical, Superdex-75 10/300 GL, 20 mM Tris-HCl pH 7, 150 mM NaCl, 1 mM TCEP; 200 ul of 150 uM protein incubated 24 h at 37 °C, each injected separately; 0.8 ml/min; dimer to monomers; both purified. A general note: Size exclusion chromatography separates by hydrodynamic size, large species first.

Sequences of proteins named here, by UniProt entry; tags and fusion partners are left off. A change or cut given only in a name is not applied to a line headed by its entry.
UniProt P54253: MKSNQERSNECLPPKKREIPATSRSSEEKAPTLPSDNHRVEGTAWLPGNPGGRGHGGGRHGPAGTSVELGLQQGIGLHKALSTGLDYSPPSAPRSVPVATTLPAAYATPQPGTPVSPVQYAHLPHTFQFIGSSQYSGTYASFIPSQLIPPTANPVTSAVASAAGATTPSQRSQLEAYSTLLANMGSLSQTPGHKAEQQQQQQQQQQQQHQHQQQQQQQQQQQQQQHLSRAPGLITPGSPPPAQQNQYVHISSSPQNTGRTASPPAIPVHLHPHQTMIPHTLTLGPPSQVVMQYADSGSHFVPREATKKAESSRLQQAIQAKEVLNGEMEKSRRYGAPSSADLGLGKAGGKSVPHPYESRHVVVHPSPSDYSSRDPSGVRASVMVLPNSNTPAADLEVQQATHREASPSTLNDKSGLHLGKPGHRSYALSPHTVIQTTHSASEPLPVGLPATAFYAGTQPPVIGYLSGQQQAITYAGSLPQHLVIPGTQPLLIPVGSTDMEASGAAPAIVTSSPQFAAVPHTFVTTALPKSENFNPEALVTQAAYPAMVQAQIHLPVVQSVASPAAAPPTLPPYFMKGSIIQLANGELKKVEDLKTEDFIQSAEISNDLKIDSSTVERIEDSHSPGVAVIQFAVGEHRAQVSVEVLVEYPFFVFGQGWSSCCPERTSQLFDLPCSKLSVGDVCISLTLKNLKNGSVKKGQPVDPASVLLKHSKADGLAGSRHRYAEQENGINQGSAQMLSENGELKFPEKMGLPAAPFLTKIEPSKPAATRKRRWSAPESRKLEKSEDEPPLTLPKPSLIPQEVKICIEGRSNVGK

Assay [2] has as its target Full-length non-expanded (Q30) ataxin-1, CFP or YFP fused at its N-terminus (UniProt P54253). As to the kind of experiment: FRET or BRET; acceptor photobleaching FRET between co-expressed CFP and YFP fusions in COS cells, fixed with 4% paraformaldehyde 54 h after transfection; Zeiss LSM 510 confocal microscope. Background: In BRET a luciferase serves as donor, and the signal depends on an acceptor being close.

Results are given in words; binding and its absence hold for the method and conditions named. For part of these data: Binding seen in cells or lysates may run through a third protein. Some binding calls cover weakened binding; strength is not graded here.

As to “AXH domain of ataxin-1, recombinant protein for size exclusion chromatography (from UniProt P54253 562-693) (domain or fragment)”, the binding result in assay [1] is reported as “binds”.
Regarding “Full-length non-expanded (Q30) ataxin-1 N-terminal to YFP (from UniProt P54253 1-815)”, the binding result in assay [2] is given as “binds”.
For “Full-length non-expanded (Q30) ataxin-1, CFP or YFP fused at its N-terminus (from UniProt P54253 1-815)”, the binding entry in assay [2] is recorded as “binds”.

For the origin of these results see publication PMC3970802.
